# Test results taken from PubChem BioAssay AID256 (DTP/NCI, 2004).
# The list does not hold the whole screen: it is rich in T/C values a quarter to a half above the control, in often repeated tests (any T/C) and in doses without a T/C. Further doses and runs are listed elsewhere. T/C: endpoint of the treated group in % of that of the vehicle group. Some entries give survivors of the animals treated and no T/C: the source holds a T/C of zero for them, seemingly a mark for toxic or unscored doses. Some doses without a T/C left all or most animals alive at the check, yet need not have been tolerated: the source hardly ever lists a survival T/C far under the control, and the zero likely stands for such cases as well. Survivors were counted at the toxicity check, usually on the fifth day, unless a day is given; later deaths do not show. Schedules are NCI's codes, read here as Q, the interval in days (D) or hours (H), X, the number of doses. Some doses were run more than once; the results are listed from low to high. Some schedule codes hold Z or #, which are not explained here. For survival time, the PubChem record calls one and a half times the control and up active, and a quarter to a half above the control has no call in these data; cut-offs in other NCI protocols can differ. Some T/C values carry the count of animals alive at the toxicity check (mostly the fifth day); where none is given, no animal had died by that day.
# Test system: CD2F1 mice, L1210 leukemia ip, survival T/C
# Test: NCI In Vivo Anticancer Drug Screen. Data for tumor model L1210 Leukemia (intraperitoneal) in CD2F1 (CDF1) mice
# Settings: higher T/C = longer survival
# Procedure, shortened: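 Mice carrying a transplanted tumor received test compound or vehicle alone. The value is the measurement in the treated group divided by that in the vehicle-treated control group.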
# [1] = T/C endpoint: mean survival time, dose: 100.0 mg/kg/injection, schedule: Q04DX003 (ip), vehicle: saline with Tween-80
# [2] = T/C endpoint: mean survival time, dose: 200.0 mg/kg/injection, schedule: Q04DX003 (ip), vehicle: saline with Tween-80
# [3] = T/C endpoint: mean survival time, dose: 400.0 mg/kg/injection, schedule: Q04DX003 (ip), vehicle: saline with Tween-80
# [4] = T/C endpoint: mean survival time, dose: 400.0 mg/kg/injection, schedule: Q01DX001 (ip), vehicle: saline with Tween-80
# [5] = T/C endpoint: mean survival time, dose: 100.0 mg/kg/injection, schedule: Q04DX002 (ip), vehicle: saline with Tween-80
# [6] = T/C endpoint: mean survival time, dose: 200.0 mg/kg/injection, schedule: Q04DX002 (ip), vehicle: saline with Tween-80
# [7] = T/C endpoint: mean survival time, dose: 400.0 mg/kg/injection, schedule: Q04DX002 (ip), vehicle: saline with Tween-80
# [8] = T/C endpoint: mean survival time, dose: 200.0 mg/kg/injection, schedule: Q01DX001 (ip), vehicle: saline with Tween-80
# [9] = T/C endpoint: mean survival time, dose: 200.0 mg/kg/injection, schedule: Q04DX003 (ip), vehicle: saline
# [10] = T/C endpoint: mean survival time, dose: 300.0 mg/kg/injection, schedule: Q01DX001 (ip), vehicle: saline
# [11] = T/C endpoint: median survival time, dose: 200.0 mg/kg/injection, schedule: Q01DX009 (ip), vehicle: saline + Tween-80 + alcohol
structure (smiles),measurement,setting,value
CCCCCCCCCCCCCCNC(=O)C[N+](C)(C)Cc1ccccc1,survivor count,"T/C endpoint: mean survival time, dose: 2.5 mg/kg/injection, schedule: Q01DX009 (ip), vehicle: saline with Tween-80",0 of 6
same,survivor count,"T/C endpoint: mean survival time, dose: 5.0 mg/kg/injection, schedule: Q01DX009 (ip), vehicle: saline with Tween-80",0 of 6
same,survivor count,"T/C endpoint: mean survival time, dose: 10.0 mg/kg/injection, schedule: Q01DX009 (ip), vehicle: saline with Tween-80",0 of 6
same,survivor count,"T/C endpoint: mean survival time, dose: 20.0 mg/kg/injection, schedule: Q04DX003 (ip), vehicle: saline",6 of 6
same,survivor count,[1],0 of 6
same,survivor count,[2],0 of 6
same,survivor count,[3],0 of 6
CCN(CC)c1nc(N(CC)CC)nc(N(CC)CC)n1,survivor count,"T/C endpoint: mean survival time, dose: 400.0 mg/kg/injection, schedule: Q01DX009 (ip), vehicle: saline with Tween-80",10 of 10
C/C(=N/O)c1cc(CN(C)C)oc1C,survivor count,[4],3 of 6
CC1CCC2NCCCC2C1 (centres undefined),survivor count,[5],0 of 3
same,survivor count,[6],0 of 3
same,survivor count,[7],0 of 3
c1ccc(CNCCNCc2ccccn2)nc1,survivor count,"T/C endpoint: mean survival time, dose: 50.0 mg/kg/injection, schedule: Q04DX002 (ip), vehicle: saline with Tween-80",0 of 3
same,survivor count,[5],0 of 3
same,survivor count,[6],0 of 3
same,survivor count,[7],0 of 3
CC(=O)c1cno[n+]1[O-],survivor count,"T/C endpoint: mean survival time, dose: 20.0 mg/kg/injection, schedule: Q01DX009 (ip), vehicle: saline with Tween-80",1 of 6
COC(=O)c1ccc(N(C)C/C(CN2C(=O)c3ccccc3C2=O)=N\O)cc1,survivor count,"T/C endpoint: mean survival time, dose: 300.0 mg/kg/injection, schedule: Q01DX001 (ip), vehicle: other",0 of 6
[N-]=[N+]=CC(=O)NCC(=O)NNCCO,survivor count,"T/C endpoint: mean survival time, dose: 200.0 mg/kg/injection, schedule: Q01DX009 (ip), vehicle: other",6 of 6
same,survivor count,"T/C endpoint: mean survival time, dose: 400.0 mg/kg/injection, schedule: Q01DX009 (ip), vehicle: other",2 of 6 and 6 of 6
same,survivor count,"T/C endpoint: mean survival time, dose: 600.0 mg/kg/injection, schedule: Q01DX009 (ip), vehicle: other",0 of 6 and 6 of 6
same,survivor count,"T/C endpoint: mean survival time, dose: 800.0 mg/kg/injection, schedule: Q01DX009 (ip), vehicle: other",0 of 6 and 6 of 6
N#Cc1nc(-c2ccco2)c(-c2ccco2)nc1C#N,survivor count,[8],5 of 6
same,survivor count,[4],2 of 6
Cc1nc2c(N)cc(Cl)cc2[nH]1,survivor count,"T/C endpoint: median survival time, dose: 200.0 mg/kg/injection, schedule: Q01DX005 (ip), vehicle: saline with Tween-80",4 of 6
same,survivor count,"T/C endpoint: median survival time, dose: 400.0 mg/kg/injection, schedule: Q01DX005 (ip), vehicle: saline with Tween-80",0 of 6
Cc1ccc(S(=O)(=O)/C=C(\I)c2ccc([N+](=O)[O-])cc2)cc1,survivor count,[9],0 of 6
CCCCN(CCCC)CCCN(CCCOS(C)(=O)=O)CCCOS(C)(=O)=O,T/C,"T/C endpoint: mean survival time, dose: 25.0 mg/kg/injection, schedule: Q01DX009 (ip), vehicle: saline",129 % of control
same,T/C,"T/C endpoint: mean survival time, dose: 50.0 mg/kg/injection, schedule: Q01DX001 (ip), vehicle: saline",130 % of control
same,T/C,"T/C endpoint: mean survival time, dose: 50.0 mg/kg/injection, schedule: Q04DX003 (ip), vehicle: saline",133 % of control
same,T/C,"T/C endpoint: mean survival time, dose: 75.0 mg/kg/injection, schedule: Q04DX003 (ip), vehicle: saline",145 % of control
same,T/C,"T/C endpoint: mean survival time, dose: 100.0 mg/kg/injection, schedule: Q01DX001 (ip), vehicle: saline",142 % of control
same,T/C,"T/C endpoint: mean survival time, dose: 150.0 mg/kg/injection, schedule: Q04DX003 (ip), vehicle: saline",128 % of control
same,survivor count,"T/C endpoint: mean survival time, dose: 200.0 mg/kg/injection, schedule: Q01DX009 (ip), vehicle: saline",0 of 6
same,survivor count,[9],4 of 6
C/C(=N/NC(=O)c1ccccc1)c1ccc(Cl)cc1Cl,survivor count,"T/C endpoint: mean survival time, dose: 100.0 mg/kg/injection, schedule: Q01DX009 (ip), vehicle: Klucel (hydroxypropylcellulose) (HPC)",1 of 6
same,survivor count,"T/C endpoint: mean survival time, dose: 200.0 mg/kg/injection, schedule: Q01DX009 (ip), vehicle: Klucel (hydroxypropylcellulose) (HPC)",0 of 6
CC(=O)Nc1ncc2nc(C)c(C)nc2n1,survivor count,"T/C endpoint: mean survival time, dose: 100.0 mg/kg/injection, schedule: Q01DX009 (ip), vehicle: saline with Tween-80",1 of 6
same,survivor count,"T/C endpoint: mean survival time, dose: 200.0 mg/kg/injection, schedule: Q01DX009 (ip), vehicle: saline with Tween-80",0 of 6
CN1CCN=C1c1ccc(NC(=O)Nc2ccc(NC(=O)Nc3ccc(C4=NCCN4C)cc3)cc2)cc1,survivor count,"T/C endpoint: mean survival time, dose: 12.5 mg/kg/injection, schedule: Q01DX Z (ip), vehicle: water",2 of 6
same,survivor count,"T/C endpoint: mean survival time, dose: 15.0 mg/kg/injection, schedule: Q01DX Z (ip), vehicle: water",0 of 6
same,survivor count,"T/C endpoint: mean survival time, dose: 20.0 mg/kg/injection, schedule: Q01DX Z (ip), vehicle: water",0 of 6
same,survivor count,"T/C endpoint: mean survival time, dose: 30.0 mg/kg/injection, schedule: Q01DX Z (ip), vehicle: water",0 of 6
Cc1cc(C)c(C(=O)CCCC(=O)O)c(C)c1,survivor count,[3],6 of 6
CC(C)=CC1CC(C)C2(CCC3(C)CC4C(C(=O)CC4(C)O)/C(C=O)=C\CC32)O1 (centres undefined),survivor count,"T/C endpoint: mean survival time, dose: 18.75 mg/kg/injection, schedule: Q01DX009 (ip), vehicle: saline with Tween-80",3 of 6
same,survivor count,"T/C endpoint: mean survival time, dose: 37.5 mg/kg/injection, schedule: Q01DX009 (ip), vehicle: saline with Tween-80",0 of 6
same,survivor count,"T/C endpoint: mean survival time, dose: 75.0 mg/kg/injection, schedule: Q01DX009 (ip), vehicle: saline with Tween-80",0 of 6
N=C(N)c1ccc(OCCOc2ccc(N)cc2)cc1,survivor count,[4],1 of 6
Clc1ccc(C2SC=Cc3ccccc32)cc1 (centres undefined),survivor count,"T/C endpoint: median survival time, dose: 400.0 mg/kg/injection, schedule: Q01DX009 (ip), vehicle: Klucel (hydroxypropylcellulose) (HPC)",0 of 10
same,survivor count,"T/C endpoint: median survival time, dose: 800.0 mg/kg/injection, schedule: Q01DX009 (ip), vehicle: Klucel (hydroxypropylcellulose) (HPC)",0 of 10
C#CC[N+](CC)(CC)CCNC(=O)CCCCCCCCCCCCCCC,survivor count,"T/C endpoint: mean survival time, dose: 150.0 mg/kg/injection, schedule: Q01DX001 (ip), vehicle: saline",1 of 6
same,survivor count,[10],0 of 6
CCC1CC(=O)C2Nc3ccccc3C2C1 (centres undefined),survivor count,[8],6 of 6
O=C(Nc1ccc(O)cc1)c1c(O)[nH]c(=S)[nH]c1=O,survivor count,"T/C endpoint: median survival time, dose: 200.0 mg/kg/injection, schedule: Q01DX009 (ip), vehicle: saline with Tween-80",3 of 6
CC(=O)Oc1ccccc1O,T/C,"T/C endpoint: median survival time, dose: 50.0 mg/kg/injection, schedule: Q01DX009 (ip), vehicle: saline + Tween-80 + alcohol","97, 103, 111, 112 % of control"
same,T/C,"T/C endpoint: median survival time, dose: 100.0 mg/kg/injection, schedule: Q01DX009 (ip), vehicle: saline + Tween-80 + alcohol","114, 128 [5 of 6 alive], 133, 148 % of control"
same,T/C,[11],"97 [4 of 6 alive], 136, 165 % of control"
same,survivor count,[11],3 of 6
same,survivor count,"T/C endpoint: median survival time, dose: 400.0 mg/kg/injection, schedule: Q01DX009 (ip), vehicle: saline + Tween-80 + alcohol",0 of 6
CCOC(=O)C[Se]CC(=O)OCC,survivor count,[4],1 of 3
[Cl][Pt+2][Cl].[NH-]c1cccc(F)c1.[NH-]c1cccc(F)c1,survivor count,[1],2 of 3
same,survivor count,[2],0 of 3
OCCC(c1ccccc1)C1CCCCN1 (centres undefined),survivor count,[10],1 of 6
CC(C)(C)OOC(=O)c1ccccn1,survivor count,[7],0 of 3
CC(C)CC(NC(=O)C(N)Cc1ccc(N(CCCl)CCCl)cc1)C(=O)O (centres undefined),T/C,"T/C endpoint: mean survival time, dose: 8.0 mg/kg/injection, schedule: Q04DX003 (ip), vehicle: saline with Tween-80",129 % of control
same,T/C,"T/C endpoint: mean survival time, dose: 128.0 mg/kg/injection, schedule: Q04DX003 (ip), vehicle: saline with Tween-80",132 % of control [9 of 10 alive]
Nc1ncnc2c1c1c(=S)[nH]c(=O)[nH]c1n2C1OC(CO)C(O)C1O (centres undefined),survivor count,"T/C endpoint: mean survival time, dose: 200.0 mg/kg/injection, schedule: Q01DX005 (ip), vehicle: distilled water + Tween-80",0 of 4
same,survivor count,"T/C endpoint: mean survival time, dose: 400.0 mg/kg/injection, schedule: Q01DX005 (ip), vehicle: distilled water + Tween-80",0 of 4
COc1cc2cc(c1Cl)N(C)C(=O)CC(OC(=O)C(C)N(C)C(=O)C(C)C)C1(C)OC1C(C)C1CC(O)(NC(=O)O1)C(OC)/C=C/C=C(C)C2OC (centres undefined),T/C,"T/C endpoint: median survival time, dose: 32.0 micrograms/kg/injection, schedule: Q01DX009 (ip), vehicle: Klucel (hydroxypropylcellulose) (HPC)",132 % of control
